# Measurements reported in PubChem BioAssay AID1347423 (Functional Genomics Laboratory (NCATS/FGL), 2020).
# Out of some 52,000 sequences screened, about 210 (0.4%) were called active.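 How the source made its calls: active means gene whose silencing raises cell survival under the drug, median off-target-corrected z-score across its silencing RNAs 2 or more; inactive means the rest.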 The list shows a part of the results.
# Test: Resistance to Poly (ADP-Ribose) Polymerase inhibitor: Gene Identification via Genome-wide siRNA Screen
# Details: mouse BRCA2 R2336H ES cells, olaparib, CellTiter-Glo viability; stronger effect = higher value
# Outline: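 Mouse BRCA2 R2336H ES cells were reverse-transfected with siRNA (20 nM final), treated at 48 h with 500 nM olaparib, and read by CellTiter-Glo after 72 h. Scores: MAD-based z per siRNA, median per gene, seed off-target correction.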
row,Sequence,z-score
1,GGGACAUUGCAUUGUGAUCTT against Hspa1a,inactive: -0.39
2,GGCAAAAAUACGUUCUAUATT against Slc35a3,inactive: 0.565
3,GGAUUGGAUAUUGAGAAGGTT against Smfn,inactive: -1.41
4,GGAGAUGCAAGGAAAAGUUTT against C230052I12Rik,inactive: -1.67
5,GGAGAUUCAGAAGCACAACTT against Fads2,inactive: 0.811
6,GGUCUGAUCAAGGCUGCCATT against Trpm1,inactive: 1.66
7,CCCUAUGCAGGGCUCAAUATT against 9930020N01Rik,inactive: 1.75
8,GAAGCUUUGUGAUGGAUUATT against Ccl4,inactive: 1.53
9,GCAUGGAUAGAUAAUUCAATT against Atp5a1,inactive: 1.15
10,GGCAAUGUCUUCUCCAAUATT against Dedd,inactive: -1.14
11,CCUGAUAUUCCAUCCUGAATT against 2410021P16Rik,inactive: 0.543
12,GGUCCUAGUUAAUUUCACUTT against Ipmk,inactive: -1.29
13,GGGUUCCCUGAAAUGUUAGTT against Atic,inactive: -0.321
14,CCAAACACAUUUUAUUCCATT against Slamf7,inactive: 2.49
15,GGUGCUAAAGGACAUAGGUTT against 2300008B03Rik,inactive: 0.787
16,GGAAACUGGUAACUGAUGATT against Acp1,inactive: -1.24
17,GGCCUAAGUAAACACAAAATT against Zfp307,inactive: 0.00636
18,GGUUGCUCAAGAAACAGACTT against Rad50,inactive: -0.253
19,GGCUAGAUGACAACCGCAUTT against Flrt1,inactive: -0.0796
20,CCAGGAUUCGGACAAAACUTT against 2810013M15Rik,inactive: -1.16
21,GCAAGAAACAUUAGCGAAUTT against Dapk1,inactive: 1.31
22,CGAGAGUCAGCUAUUAAUGTT against Stoml2,inactive: -0.456
23,CCCUCAUAACUAAUGCUGUTT against Pip5kl1,inactive: 0.251
24,CCGGUUAGCUCAGUAUGACTT against AI452372,inactive: 0.189
25,GCGACAGAGGAAGCUUGUUTT against 2600016B03Rik,inactive: -2.87
26,CCCAAGAAUUCAAAUCCUATT against Rgr,inactive: 0.468

# Looked up above:
# Entry for GGUUGCUCAAGAAACAGACTT against Rad50 under z-score: inactive: -0.253
# Entry for CCCUAUGCAGGGCUCAAUATT against 9930020N01Rik under z-score: inactive: 1.75

# A second format for part of the listing above.
row | Sequence | z-score
11 | CCUGAUAUUCCAUCCUGAATT against 2410021P16Rik | inactive: 0.543
26 | CCCAAGAAUUCAAAUCCUATT against Rgr | inactive: 0.468

# Remaining list, next part:

row,Sequence,z-score
1,GGAUGGACCGGAGACAACUTT against Brs3,inactive: -0.681
2,GGUGUUGUGGAAUAUUUAATT against Cnot6l,inactive: 1.95
3,GGUCCAGAGUUAUGAUUUGTT against 4833420N02Rik,inactive: 0.477
4,GGUGUAAGAACUUCAAGUUTT against Tlr9,inactive: 0.202
5,GGAUAGAGACUGAUGCUCATT against Eat2,inactive: -0.217
6,GGUCAACAACCUCAUCUGCTT against Lhx6,inactive: 0.105
7,GGAAGAACUUCUGUUCAUGTT against Krt1-18,inactive: -0.483
8,GGAGGGUACUCACAGGAAATT against Olfr411,inactive: -1.4
9,GGUUAAAUCCCUGAUGUAUTT against Ptdss1,inactive: -0.928
10,GCCUAGCUGAAAACGUGUCTT against Cog4,inactive: 0.255
11,CCUCAAUGAGAGUCUAAUGTT against Olfr97,inactive: -2.45
12,CGCAGUGUGUCUCAUUUAATT against Anxa5,inactive: 0.256
13,GCUAGCCGUGUUUUCUAUUTT against Twist2,inactive: 0.873
14,GCAGGAUUGAAACAUGUAUTT against Tcl1b3,inactive: 0.892
15,GCCUAUCUUGUCACCACUGTT against Tagln2,inactive: 0.407
16,GGGAAAGCCAUCCUUCACUTT against BC030476,inactive: 0.0613
17,GGAAUCAUUUGUUCCCAACTT against Lpl,inactive: 1.36
18,GGUGAACUUGUGUCUCACUTT against D16H22S680E,inactive: 0.631
19,GGAGAUCACAUGUUUUUUUTT against Keap1,inactive: 1.33
20,GGUCUAUGAAGAGAAGACUTT against 1700021F05Rik,inactive: 1.43
21,GGAAAAGAUUGACAUCUGCTT against Jrk,inactive: 0.125
22,CCUGGAACUUGUUGGAAGCTT against Igsf3,inactive: 1.86
23,GGAUGUUACUCCCUCAAAUTT against 4930511M11Rik,inactive: 1.32
24,CGUUACGUAAAUCUUGUGATT against Sstr2,inactive: 0.0885
25,GCUGCAUAGACUCAUGGUUTT against Znrf1,inactive: 0.16
26,GUACCUGAAUUGCUACCGATT against Ly6g5c,inactive: 3.1

row,Sequence,z-score
1,CCAUCCGGGAAAAAAUCAATT against Cdk5rap3,inactive: -0.0314
2,CCAUUUCCCAUUUCUGAAGTT against 1700001P01Rik,inactive: 0.97
3,UCAUUAGUAUCCUCCGUAUTT against Olfr919,inactive: -1.25
4,GGCAUCUUCCUGAAAAAGCTT against Mybpc2,inactive: 0.0738
5,GGAGUAUGUGCAAUAUAAATT against Asb15,inactive: 1.02
6,GGCAUGUUCUGGGCAGAUGTT against Resp18,inactive: -0.839
7,CCAGAAACAUACGAAGAUUTT against Khdrbs1,active: 2.31
8,GGGAAAACAGAAGAGUUUGTT against Sh2bp1,inactive: -1.01
9,GGCGCAUAUGUAGCACCUATT against Egfl8,inactive: 0.389
10,GGCCUAUCUCAUCUAUUUCTT against Ptpru,inactive: 0.662
11,CCUUGAGCACAUCUGCUUGTT against Serpina3k,inactive: 1.05
12,GGACUAUCAGGACCUUUUUTT against Dnajb3,inactive: -1.77
13,CCAUCUCCUUCAUUCUGUGTT against Olfr444,inactive: -1.82
14,GGUCAAGAAAUGGAAGCUGTT against Dos,inactive: 1.91
15,GGGAAACUCUUUGAAGAUATT against Lsm5,inactive: -2.47
16,GGCUUUAGCAGAUGAGCGATT against Spnb4,inactive: -1.66
17,GCUUUUUACAGGAUAUACATT against D5Ertd689e,inactive: -0.521
18,AAACAGUCAUUUCCUAUAGTT against Olfr1502,inactive: 0.0448
19,GGAAUUUGUCAGGUUCCAATT against Grik4,inactive: -0.42
20,GGAGUUUGUAACCCUCCUGTT against Cabp7,inactive: 0.724
21,GGCAGAAGUUGGAAGAAAUTT against Tap1,inactive: -0.612
22,CGCAAGUAUUUCCACCAUATT against Clk4,inactive: 0.706
23,GGACAGAUUUGUGAAUGAUTT against Rcn2,inactive: -1.24
24,GCUUACGUAGGAAAUCUCCTT against Wbscr1,inactive: 0.231
25,GCAGCCCACUCAUAUGAAATT against Homez,inactive: 1.3
26,GCUUGUCUACUAUUUCACATT against 1700067C01Rik,inactive: -0.127

row,Sequence,z-score
1,GGUGAGUGAUCUUCAGAACTT against Snx13,inactive: 0.227
2,GGAGGAAAAGGCUUUUCGATT against 1700112P19Rik,inactive: -1.09
3,GGAGAAAGCUUACUGCCUUTT against Lrrc6,inactive: -0.628
4,GCCAUCGAUACCACAACACTT against Slfn8-pending,inactive: 0.928
5,CCGUCAUCACUGAUCAGUUTT against Olfr684,inactive: -0.243
6,GGUCAAGUAACAUGGUUUGTT against MGC68340,inactive: 1.19
7,GGACUUUCUUAACUACACUTT against Slc2a3,inactive: -1.41
8,CCCAUAGAACAUCUUAAAATT against Ifi202b,inactive: 0.205
9,GGACAAGUUUGAAUUUGACTT against Usp5,inactive: -2.09
10,CCAGUAUUCAUGUAAAUGGTT against Crbn,inactive: 0.0719
11,GGCUAAGAAACUGAAGAGATT against BC020535,inactive: -1.26
12,CGUGAACAUUUCCUACAUATT against LOC13909,inactive: -0.468
13,GCUUACCCUCUCCUAAAUUTT against 0610012K18Rik,inactive: 0.737
14,CGAUGCUGUGGAACUGCACTT against Ptgfrn,inactive: 1.75
15,GGAUCAAUUCUAGAAUCAGTT against Runx3,inactive: 0.347
16,GGGUGUGAAGGAGUUCAAGTT against 5430400N05Rik,inactive: 0.297
17,GGAAUUCCUCUGUAUGAAATT against Pgr,inactive: 0.327
18,GGAGUAUGGCGAAUUCUAUTT against Hspcb,inactive: -0.15
19,CGUCUUUGCCCAUACACUCTT against A230052G05Rik,inactive: -1.63
20,GCUCGAGAUCGAAACAUACTT against 4432412D15Rik,inactive: 1.68
21,GCUCAAAUUGAGUCCUUAUTT against 4933415L06Rik,inactive: -1.63
22,GGUUGAAUCCUAAGAAUGUTT against AA517853,inactive: -1.17
23,CCCAGAAGGAAUGGCUAAATT against 1700054O13Rik,inactive: 0.922
24,GGGAGAGGUGUUACACCCUTT against Adamts10,inactive: 0.0725
25,GGGAGAUAGCCGAUAUAUCTT against Ebp,inactive: 1.99
26,GGGAAAAGUGACAAUUGCUTT against Dusp8,inactive: -2.31
